From article PMC8187792
No constants are given. Whether binding was seen depends on the method and setting. Binding seen in cells or lysates may run through a third protein. Here binding means that the protein was enriched with, or labelled near, the bait; the list need not be complete. Tags and fused reporters may be left off the sequences shown.

Amino acid sequences for entries named in this document (tags omitted).
UniProt Q60737: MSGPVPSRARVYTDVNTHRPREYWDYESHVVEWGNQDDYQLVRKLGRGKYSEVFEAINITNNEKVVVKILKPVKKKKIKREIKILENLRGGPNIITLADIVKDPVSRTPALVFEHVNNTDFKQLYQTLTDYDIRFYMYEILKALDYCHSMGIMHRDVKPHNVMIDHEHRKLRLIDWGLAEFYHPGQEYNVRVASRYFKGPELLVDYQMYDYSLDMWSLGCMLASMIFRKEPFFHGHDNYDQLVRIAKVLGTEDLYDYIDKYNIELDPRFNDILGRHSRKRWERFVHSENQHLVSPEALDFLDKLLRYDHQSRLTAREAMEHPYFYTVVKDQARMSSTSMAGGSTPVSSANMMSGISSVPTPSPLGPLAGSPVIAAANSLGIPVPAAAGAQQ
UniProt Q60598: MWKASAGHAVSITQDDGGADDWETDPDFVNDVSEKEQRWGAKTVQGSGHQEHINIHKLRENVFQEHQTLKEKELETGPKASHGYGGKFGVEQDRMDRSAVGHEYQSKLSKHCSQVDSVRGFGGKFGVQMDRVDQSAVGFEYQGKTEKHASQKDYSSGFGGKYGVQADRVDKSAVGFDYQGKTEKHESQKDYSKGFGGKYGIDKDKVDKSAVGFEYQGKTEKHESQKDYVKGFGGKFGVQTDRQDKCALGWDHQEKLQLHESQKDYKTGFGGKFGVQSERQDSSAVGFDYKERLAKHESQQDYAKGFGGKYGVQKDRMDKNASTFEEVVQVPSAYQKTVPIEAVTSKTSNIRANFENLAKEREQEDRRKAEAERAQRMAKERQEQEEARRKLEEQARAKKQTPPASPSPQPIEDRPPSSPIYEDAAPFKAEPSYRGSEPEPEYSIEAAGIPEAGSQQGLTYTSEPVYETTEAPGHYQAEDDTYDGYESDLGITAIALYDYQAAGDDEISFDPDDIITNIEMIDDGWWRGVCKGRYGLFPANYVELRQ
UniProt P67871: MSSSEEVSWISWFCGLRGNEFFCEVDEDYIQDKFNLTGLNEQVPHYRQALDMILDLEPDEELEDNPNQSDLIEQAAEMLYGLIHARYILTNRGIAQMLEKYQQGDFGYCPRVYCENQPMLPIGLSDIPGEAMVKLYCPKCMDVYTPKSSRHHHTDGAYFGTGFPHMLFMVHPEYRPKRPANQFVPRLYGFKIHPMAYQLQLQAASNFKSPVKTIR

biological target: T1, eGFP-tagged human NUMB 1 (human) (UniProt P49757); assay: affinity purification with mass spectrometry; GFP-Trap_MA beads on lysates of stable NUMB-1-eGFP MLE12 cells, with eGFP cells as control; hits enriched more than twofold, p < 0.05
T1 sequence: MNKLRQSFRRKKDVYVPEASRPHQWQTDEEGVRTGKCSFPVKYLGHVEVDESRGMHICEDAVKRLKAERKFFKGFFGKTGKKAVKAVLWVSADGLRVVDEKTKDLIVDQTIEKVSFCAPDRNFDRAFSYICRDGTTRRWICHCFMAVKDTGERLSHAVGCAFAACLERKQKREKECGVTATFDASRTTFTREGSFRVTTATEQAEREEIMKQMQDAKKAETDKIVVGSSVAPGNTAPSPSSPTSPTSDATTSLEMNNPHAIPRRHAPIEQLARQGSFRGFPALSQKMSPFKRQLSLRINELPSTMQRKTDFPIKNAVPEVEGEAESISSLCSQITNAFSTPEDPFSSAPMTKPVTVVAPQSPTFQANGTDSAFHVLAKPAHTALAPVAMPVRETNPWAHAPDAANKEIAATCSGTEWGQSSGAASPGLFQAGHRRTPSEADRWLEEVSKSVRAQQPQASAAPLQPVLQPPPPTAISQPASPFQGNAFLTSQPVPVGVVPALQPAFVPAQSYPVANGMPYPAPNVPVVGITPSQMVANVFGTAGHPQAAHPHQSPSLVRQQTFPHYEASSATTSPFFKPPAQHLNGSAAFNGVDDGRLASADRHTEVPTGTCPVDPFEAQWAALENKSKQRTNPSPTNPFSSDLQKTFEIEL

binding, binds:
casein kinase 2 α subunit (from UniProt Q60737 1-391) (enzyme)
cortactin (from UniProt Q60598 1-546)
casein kinase 2 β subunit (from UniProt P67871 1-215)
